Patent publication US20150056195A1, “COMPOSITIONS AND METHODS FOR INIHIBITING TUMORIGENICITY OF SENESCENT CANCER CELLS INDUCED BY CHEMOTHERAPY” (INSERM (INSTITUT NATIONAL DE LA SANTE ET DE LA RECHERCHE …, priority 2013, published 2015)
At least one compound was matched to its structure with a doubt left.

What was measured:
melanoma cells = conditions: reference 49; cited from earlier work
melanoma cell lines = assay: Western blot of MITF, ECAD, FN1, NANOG, OCT4; type: cell-based, human; conditions: three melanoma cell lines exposed 48 hrs to secretome of cells rendered senescent by the drug (temozolomide 900 nM, fotemustine 40 nM)
Description: Western blots were carried out as previously described^48. Briefly, cell lysates (30 μg) were separated by SDS-PAGE, transferred on to a PVDF membrane and then exposed to the appropriate primary and HRP-linked secondary antibodies. Proteins were visualized with the ECL system (Amersham). The western blots shown are representative of at least 3 independent experiments.

SMILES: CCCS(=O)(=O)Nc1ccc(F)c(C(=O)c2c[nH]c3ncc(-c4ccc(Cl)cc4)cc23)c1F [Vemurafenib]
- senescence in melanoma cells (melanoma cells): induces senescence features

SMILES: Cn1nnc2c(C(N)=O)ncn2c1=O [temozolomide]
- E-Cadherin and MITF protein level (melanoma cell lines): decrease
- expression of Fibronectin1 (melanoma cell lines): increased expression
